Experimental data as given in publication PMC11461180, “Interaction with IP6K1 supports pyrophosphorylation of substrate proteins by the inositol pyrophosphate 5-InsP7” (Bioscience Reports, 2024).
Results are given in words; binding and its absence hold for the method and conditions named. In cells and extracts the contact can be indirect. Some results given as binding are weak or reduced against the parent protein; the word gives no strength. For part of these data: Sequences can lack the tags named with a protein.

Protein sequences, listed by entry. Tags and fused reporters are not part of them. Lines headed by an entry give the natural chain unless they say otherwise; changes in a name come on top.
UniProt P68400: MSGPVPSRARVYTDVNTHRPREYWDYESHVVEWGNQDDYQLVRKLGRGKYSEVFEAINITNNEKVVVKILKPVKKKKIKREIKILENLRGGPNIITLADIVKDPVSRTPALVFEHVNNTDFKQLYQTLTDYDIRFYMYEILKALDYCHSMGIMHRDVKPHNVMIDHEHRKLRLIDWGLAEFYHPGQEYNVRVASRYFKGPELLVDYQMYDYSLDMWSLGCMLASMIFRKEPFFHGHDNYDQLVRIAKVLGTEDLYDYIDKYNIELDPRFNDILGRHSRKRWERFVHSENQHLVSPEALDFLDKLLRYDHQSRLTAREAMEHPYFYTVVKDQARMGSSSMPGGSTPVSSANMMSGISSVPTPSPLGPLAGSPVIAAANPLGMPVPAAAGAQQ
UniProt Q92551: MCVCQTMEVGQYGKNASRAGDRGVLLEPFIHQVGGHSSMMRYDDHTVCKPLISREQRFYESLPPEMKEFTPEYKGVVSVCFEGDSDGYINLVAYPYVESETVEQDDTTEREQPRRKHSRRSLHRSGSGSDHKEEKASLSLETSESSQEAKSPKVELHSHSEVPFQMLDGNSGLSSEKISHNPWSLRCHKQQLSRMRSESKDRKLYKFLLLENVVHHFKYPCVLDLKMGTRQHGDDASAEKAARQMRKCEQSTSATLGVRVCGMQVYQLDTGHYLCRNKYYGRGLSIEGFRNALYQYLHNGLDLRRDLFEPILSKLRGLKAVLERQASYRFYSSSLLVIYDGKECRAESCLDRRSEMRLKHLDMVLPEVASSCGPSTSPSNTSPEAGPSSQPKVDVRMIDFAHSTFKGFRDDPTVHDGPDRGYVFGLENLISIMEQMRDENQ
UniProt P01108: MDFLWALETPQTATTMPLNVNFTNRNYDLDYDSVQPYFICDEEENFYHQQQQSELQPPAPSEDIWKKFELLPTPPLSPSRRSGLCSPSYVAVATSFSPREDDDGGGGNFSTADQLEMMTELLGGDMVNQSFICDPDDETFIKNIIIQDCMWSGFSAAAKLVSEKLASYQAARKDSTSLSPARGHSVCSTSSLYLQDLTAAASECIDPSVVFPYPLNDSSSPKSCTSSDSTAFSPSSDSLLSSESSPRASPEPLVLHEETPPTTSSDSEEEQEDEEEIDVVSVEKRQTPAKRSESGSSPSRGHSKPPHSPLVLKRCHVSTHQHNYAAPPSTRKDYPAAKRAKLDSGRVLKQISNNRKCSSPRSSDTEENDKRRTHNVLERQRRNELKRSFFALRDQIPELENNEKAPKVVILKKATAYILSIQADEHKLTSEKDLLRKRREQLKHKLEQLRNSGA

What was measured:
[1] = molecular target: GST-tagged recombinant CK2α (human) (UniProt P68400); assay: pull-down; GST-tagged IP6K1 or CK2α purified from E. coli and immobilized on glutathione-sepharose beads, incubated with lysates of transfected HEK293T cells in 50 mM HEPES-KOH pH 7.4, 100 mM NaCl, 5 mM MgCl2, 0.3% Triton X-100, 2 h at 4°C; immunoblotting; only the target purified
SFB-tagged AP3B1 (human) = molecular target: T1, SFB-tagged AP3B1 (human) (UniProt O00203); assay: pull-down; SFB-tagged bait expressed in HEK293T (HEK293) cells, pulled down from the lysate with streptavidin-sepharose beads, 2 h at 4°C (50 mM HEPES pH 7.4, 100 mM NaCl, 1 mM EDTA, 0.5% Nonidet P-40); prey endogenous or co-expressed, detected by immunoblotting
T1 sequence: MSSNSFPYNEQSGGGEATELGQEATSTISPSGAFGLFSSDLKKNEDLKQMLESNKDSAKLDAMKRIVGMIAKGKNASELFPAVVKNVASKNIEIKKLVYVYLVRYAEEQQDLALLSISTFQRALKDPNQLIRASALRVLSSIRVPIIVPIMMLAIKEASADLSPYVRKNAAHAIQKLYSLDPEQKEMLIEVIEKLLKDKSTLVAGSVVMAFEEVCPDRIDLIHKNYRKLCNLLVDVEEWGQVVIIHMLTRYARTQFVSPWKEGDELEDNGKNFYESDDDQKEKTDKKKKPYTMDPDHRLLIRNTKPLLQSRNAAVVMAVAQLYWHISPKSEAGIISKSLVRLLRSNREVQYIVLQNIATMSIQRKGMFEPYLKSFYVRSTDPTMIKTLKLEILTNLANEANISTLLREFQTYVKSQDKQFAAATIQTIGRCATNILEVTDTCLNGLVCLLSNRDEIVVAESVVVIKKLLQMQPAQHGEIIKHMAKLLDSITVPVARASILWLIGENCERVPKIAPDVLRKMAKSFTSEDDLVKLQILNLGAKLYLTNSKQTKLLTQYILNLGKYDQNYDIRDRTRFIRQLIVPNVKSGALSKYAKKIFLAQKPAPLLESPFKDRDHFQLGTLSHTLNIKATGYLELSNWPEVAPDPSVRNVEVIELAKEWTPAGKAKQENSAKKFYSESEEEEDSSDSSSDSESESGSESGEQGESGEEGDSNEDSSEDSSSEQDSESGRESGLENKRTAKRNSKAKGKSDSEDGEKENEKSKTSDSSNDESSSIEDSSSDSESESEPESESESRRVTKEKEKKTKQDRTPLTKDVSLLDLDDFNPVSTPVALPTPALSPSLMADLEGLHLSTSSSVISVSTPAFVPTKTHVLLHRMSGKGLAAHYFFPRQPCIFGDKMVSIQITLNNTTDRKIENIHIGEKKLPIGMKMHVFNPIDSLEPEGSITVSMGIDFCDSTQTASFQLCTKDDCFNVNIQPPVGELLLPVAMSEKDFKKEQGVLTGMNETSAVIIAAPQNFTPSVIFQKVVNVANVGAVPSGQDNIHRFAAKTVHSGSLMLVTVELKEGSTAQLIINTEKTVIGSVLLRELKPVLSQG

[2] = molecular target: SFB-tagged IP6K1 (full length) (human) (UniProt Q92551); assay: as above

V5-tagged IP6K1 (from UniProt Q92551-1 1-441) (enzyme)
binding [1]: no binding

endogenous CK2 α-subunit (CK2α) (from UniProt P68400 1-391) (enzyme)
binding (SFB-tagged AP3B1 (human)): binds

mouse MYC protein, C-terminally V5-tagged (from UniProt P01108 1-454)
binding [2]: binds
